Sequences of proteins named here, by UniProt entry; tags and fusion partners are left off. A change or cut given only in a name is not applied to a line headed by its entry.
UniProt O94782: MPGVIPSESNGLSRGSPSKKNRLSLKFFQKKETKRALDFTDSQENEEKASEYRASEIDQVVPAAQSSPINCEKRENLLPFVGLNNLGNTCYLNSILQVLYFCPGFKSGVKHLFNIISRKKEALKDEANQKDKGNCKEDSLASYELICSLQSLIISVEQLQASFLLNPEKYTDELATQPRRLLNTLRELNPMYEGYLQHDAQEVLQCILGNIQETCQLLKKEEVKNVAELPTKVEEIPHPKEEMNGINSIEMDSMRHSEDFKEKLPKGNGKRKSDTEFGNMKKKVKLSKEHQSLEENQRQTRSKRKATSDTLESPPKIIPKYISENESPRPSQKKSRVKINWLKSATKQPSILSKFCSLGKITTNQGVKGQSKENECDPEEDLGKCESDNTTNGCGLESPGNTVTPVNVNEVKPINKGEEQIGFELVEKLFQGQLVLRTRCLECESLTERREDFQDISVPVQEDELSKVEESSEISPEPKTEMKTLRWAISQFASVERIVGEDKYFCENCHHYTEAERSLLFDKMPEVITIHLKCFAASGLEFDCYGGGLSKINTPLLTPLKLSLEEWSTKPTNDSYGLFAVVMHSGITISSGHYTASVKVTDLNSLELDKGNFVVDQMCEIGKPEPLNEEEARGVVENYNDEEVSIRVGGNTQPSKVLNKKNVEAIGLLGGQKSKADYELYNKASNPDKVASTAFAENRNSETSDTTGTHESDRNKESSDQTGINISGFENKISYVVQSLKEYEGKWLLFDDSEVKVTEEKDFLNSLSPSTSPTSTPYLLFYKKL

The whole screen tested about 390,000 compounds, of which about 910 (0.23%) were called active. This list was built around the results that the source calls inconclusive (neither active nor inactive); the mix of calls is not that of the screen. The call rests on the fitted dose curve; in most records, active means well fitted inhibition curve with a large enough effect; inconclusive means small, poorly fitted or top-dose-only effect; inactive means no such curve, though single readings can be large or run the other way. Where the call is inconclusive, the potency comes from a doubtful curve fit.
The compounds below were run against Ubiquitin carboxyl-terminal hydrolase 1 (Homo sapiens) (UniProt O94782) (assay: Inhibitors of USP1/UAF1: Primary Screen). Details: recombinant USP1/UAF1, Ub-Rhodamine cleavage fluorescence; activity change, negative = inhibition: at 57.1 µM (top of the series).
How it was run: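 USP1/UAF1 complex at 1 nM was preincubated with compound for 15 min at room temperature, then Ub-Rho substrate (150nM final) was added. Fluorescence (480/540 nm) was read kinetically, 6 reads every 60 seconds.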
For `CC(=O)c1cccc(NC(=O)CNC(=O)Cc2ccccc2)c1`, the Potency was inconclusive: 4.47 µM [inhibitor, partial curve]. With `CCOC(=O)CSC1=C(C#N)C(c2ccc(Cl)cc2)CC(=O)N1` (stereo not given) the Potency was inconclusive: 39.8 µM [inhibitor, single point]. For `CCCN1C(=O)c2[nH]nc(-c3ccccc3O)c2C1c1ccc(OCc2ccccc2)c(OC)c1` (stereo not given), the Potency was inconclusive: 15.8 µM [inhibitor, partial curve]. In the case of `CCN(CC)CCn1c2ccccc2c(=O)c2c(O)ccc(O)c21`, the Potency is reported as inconclusive: 39.8 µM [inhibitor, partial curve]. For `COc1ccccc1N1C(=O)c2cccc3c(N(C)CCO)ccc(c23)C1=O`, the Potency was inconclusive: 31.6 µM [inhibitor, partial curve]. `NC(=O)CSc1oc(-c2ccco2)nc1S(=O)(=O)c1ccc(Cl)cc1` was tested, and the Potency was inconclusive: 7.94 µM [inhibitor, single point]. `CCOc1ccccc1-c1nc(-c2cc3ccccc3nc2OC)no1` was tested, and the Potency was inconclusive: 35.5 µM [inhibitor, partial curve]. In the case of `CC1=C(C(=O)OCc2ccccc2)C(c2ccc3ccccc3c2)NC(=O)N1CCCC(=O)O` (stereo not given), the Potency is reported as inconclusive: 0.282 µM [inhibitor, full curve, poor fit]. With `CCOC(=O)C1CCN(C(=O)c2[nH]c3ccc(OC)cc3c2C)CC1` the Potency was “inactive”. For `Nc1cccc(C2=Nc3cccc4cccc(c34)N2)c1`, the Potency was inconclusive: 7.94 µM [inhibitor, full curve, poor fit]. For `O=C(Cn1cnc2c(cnn2-c2ccc(F)cc2)c1=O)NCCc1ccccc1`, the Potency was inconclusive: 39.8 µM [inhibitor, single point]. With `Cc1ccc(-c2ocnc2C(=O)Nc2ccccc2NC(=O)c2ccccn2)cc1` the Potency was “inactive”. `COc1cc(CNc2ccc3[nH]c(=O)[nH]c3c2)ccc1OCC(=O)NC(C)(C)C` was tested, and the Potency was “inactive”. In the case of `CC(C)Nc1nc(NC(N)=S)nc(NC(C)(C)C)n1`, the Potency is reported as inconclusive: 3.16 µM [inhibitor, partial curve]. With `C=C[C@@H](C)N(Cc1ccc(OC)cc1)S(=O)(=O)N(Cc1ccccc1)[C@H](C=C)C(C)C` the Potency was inconclusive: 0.316 µM [inhibitor, full curve, poor fit]. With `CCCCCCCCCCCCCCCCCCNc1ccn(C2OC(COP(=O)(O)OCC3OC(n4cc(F)c(=O)[nH]c4=O)CC3O)C(O)C2O)c(=O)n1` (stereo not given) the Potency was inconclusive: 44.7 µM [inhibitor, single point]. For `COc1cccc(CN(C)C(=O)c2[nH]c(C)c(C(C)=O)c2C)c1OC`, the Potency was “inactive”. With `O=C1CCCC1C(=O)Nc1ccc2ccccc2c1` (stereo not given) the Potency was “inactive”. In the case of `C=CC1=C2C=C(C3CC3)N(CCCN(CC)CC)C=C2C(=O)C(C)(OC(=O)c2ccco2)C1=O` (stereo not given), the Potency is reported as inconclusive: 63.1 µM [inhibitor, partial curve, poor fit]. For `Cc1ccc(S(=O)(=O)NC(C)(C)CN2CCNCC2)cc1`, the Potency was “inactive”. `CC(C)N(C(=O)N1CCN(c2ccnc3cc(Cl)ccc23)CC1)C(C)C` was tested, and the Potency was inconclusive: 17.8 µM [inhibitor, partial curve]. With `COc1ccc(-c2nc(N/N=C(\C)c3ccc(O)cc3)c3ccccc3n2)cc1` the Potency was inconclusive: 39.8 µM [inhibitor, partial curve]. For `CC(=O)NC(Nc1c(C)n(C)n(-c2ccccc2)c1=O)C(Cl)(Cl)Cl` (stereo not given), the Potency was “inactive”. `CCc1cccc(CC)c1NC(=O)CCS(=O)(=O)c1ccc(Br)cc1` was tested, and the Potency was inconclusive: 398 µM [inhibitor, partial curve, poor fit]. `CCOC(=O)c1sc(NC(=O)c2ccccc2)cc1C` was tested, and the Potency was “inactive”. For `Cc1ccc(S(=O)(=O)c2nc(-c3cccs3)oc2SC(C)c2ccccc2)cc1` (stereo not given), the Potency was inconclusive: 0.708 µM [inhibitor, full curve, poor fit]. With `Cc1ccc(C)c(NC(=O)c2ccc(=O)n(Cc3ccc(F)cc3)c2)c1` the Potency was inconclusive: 4.47 µM [inhibitor, partial curve]. For `O=C(COc1c(Cl)cccc1Cl)NN1C(=O)CSC1=S`, the Potency was “inactive”. In the case of `COc1cc(OC)c(NC(=O)CSC2=Nc3ccccc3N=C(c3ccc(F)cc3)C2)cc1Cl`, the Potency is reported as inconclusive: 50.1 µM [inhibitor, partial curve, poor fit]. `Cc1cccc(Nc2nc(Nc3cccc(C)c3)nc(N3CCOCC3)n2)c1` was tested, and the Potency was inconclusive: 22.4 µM [inhibitor, partial curve, poor fit]. With `COc1ccc2nc(-c3ccccc3)nc(C3CCCCC3)c2c1` the Potency was inconclusive: 0.251 µM [inhibitor, full curve, poor fit]. With `CCCCN(C(=O)c1cc(S(=O)(=O)N2CCCCCC2)ccc1OC)c1ccccc1` the Potency was “inactive”. For `CN(C)/C=C/C(=O)c1ccc2noc(-c3ccc(F)cc3)c2c1`, the Potency was inconclusive: 8.91 µM [inhibitor, partial curve, poor fit]. For `CCCC1=C(C(=O)OCC)C(c2cc(Cl)cc(OC)c2OCC(=O)OCC)NC(=O)N1` (stereo not given), the Potency was “inactive”. For `COc1ccc(C(=O)N(CCc2ccccc2)Cc2ccccc2)c(OC)n1`, the Potency was inconclusive: 56.2 µM [inhibitor, single point]. With `CC(C)NC(=S)N/N=C/C1=CCC2CC1C2(C)C` (stereo not given) the Potency was “inactive”. For `O=[n+]1c2c(n([O-])c3cc(F)c(N4CCCC4)cc31)CCC2`, the Potency was inconclusive: 17.8 µM [inhibitor, partial curve]. `COc1ccc(NC(=O)Cn2c(=O)n(-c3cccc(C)c3)c(=O)c3c2c2cc(C)ccc2n3C)cc1OC` was tested, and the Potency was inconclusive: 39.8 µM [inhibitor, partial curve, poor fit]. For `CCOc1cccc(C(=O)Nc2ccc3oc(-c4ccc(C(C)(C)C)cc4)nc3c2)c1`, the Potency was inconclusive: 35.5 µM [inhibitor, partial curve]. `COC(=O)c1[nH]c(C)c(/C(O)=C2\C(=O)C(=O)N(CCN3CCOCC3)C2c2ccc(C)o2)c1C` (stereo not given) was tested, and the Potency was inconclusive: 0.251 µM [inhibitor, full curve, poor fit]. For `O=C(NC1CCCCC1)C(c1ccc(F)cc1)N(Cc1ccco1)C(=O)c1csnn1` (stereo not given), the activity change, negative = inhibition was inconclusive: -32.9% [inhibitor]. In the case of `CCC(=O)Nc1ccc2nc(SCCOc3cccc(C)c3)sc2c1`, the Potency is reported as inconclusive: 50.1 µM [inhibitor, partial curve, poor fit]. For `O=S(=O)(O)c1cc(O)c2c(O)c(N=Nc3cc(Cl)ccc3O)c(S(=O)(=O)O)cc2c1`, the Potency was inconclusive: 31.6 µM [inhibitor, partial curve]. `O=[N+]([O-])c1ccc(N=Nc2ccc(O)c3ccccc23)cc1` was tested, and the Potency was inconclusive: 17.8 µM [inhibitor, single point]. For `COc1ccccc1NC(=S)NCCSc1ccc(C)cc1`, the Potency was “inactive”. `COc1ccc([C@H]2C[C@H](O)[C@@H](n3cc(COC(=O)c4ccccc4)nn3)CN2C(=O)C2CCCCC2)cc1` was tested, and the Potency was inconclusive: 0.282 µM [inhibitor, full curve, poor fit]. With `C=C1CCN(c2ccc(C(=O)NCc3ccc(OC)cc3)cc2[N+](=O)[O-])CC1` the Potency was inconclusive: 44.7 µM [inhibitor, partial curve, poor fit]. For `CCOC(=O)CCc1c(C(=O)OCC)[nH]c(CC)c1C(=O)OCc1ccccc1`, the Potency was inconclusive: 44.7 µM [inhibitor, partial curve, poor fit]. With `COc1ccccc1OCC(=O)NCC1(N2CCOCC2)CCCCC1` the Potency was “inactive”. In the case of `Oc1c(C(c2cccs2)N2CCN(c3cccc(Cl)c3)CC2)sc2ncnn12` (stereo not given), the Potency is reported as inconclusive: 79.4 µM [inhibitor, partial curve, poor fit]. With `COC(=O)c1cc2oc(C)cc2n1Cc1cccc(Cl)c1` the Potency was inconclusive: 7.94 µM [inhibitor, partial curve]. With `CCOC(=O)N(C)OC(=O)Nc1ccc(Cl)c(Cl)c1` the Potency was inconclusive: 4.47 µM [inhibitor, partial curve]. For `Clc1nnc(NN=C2CCCC2)c2ccccc12`, the Potency was inconclusive: 44.7 µM [inhibitor, partial curve]. In the case of `CCOC(=O)c1c(NC(=O)CSc2nc3ccccc3[nH]2)sc2c1CC(C)(C)NC2(C)C`, the Potency is reported as “inactive”. `COC(=O)/C=C/c1c(C)nc(NCc2ccccc2)nc1Cl` was tested, and the Potency was inconclusive: 0.891 µM [inhibitor, full curve, poor fit]. For `COc1ccc(NC(=O)C#Cc2ccccc2)cc1`, the Potency was “inactive”. With `Cc1cc(/C=C2\SC(=S)NC2=O)c(C)n1C1CC1` the Potency was inconclusive: 22.4 µM [inhibitor, partial curve]. In the case of `COc1ccc(Cl)cc1NC(=S)Nc1ccccc1C`, the Potency is reported as “inactive”. In the case of `Cc1ccc2c(c1)CC1(CN2C)C(=O)OC2(CCCCC2)OC1=O`, the Potency is reported as inconclusive: 0.282 µM [inhibitor, full curve, poor fit]. `CCOc1ccc(OCC)c(NC(=O)CC2Oc3ccc(C)cc3NC2=O)c1` (stereo not given) was tested, and the Potency was inconclusive: 0.282 µM [inhibitor, full curve, poor fit]. `C=CCOC(=O)/C(=C\c1cccc2ccccc12)NC(=O)c1ccccc1` was tested, and the Potency was “inactive”. For `CCOc1ccc2nc(N(Cc3cccnc3)C(=O)c3ccc4c(c3)OCCO4)sc2c1`, the Potency was inconclusive: 14.1 µM [inhibitor, partial curve]. With `O=C(Cn1nnc(-c2ccc(Cl)cc2)n1)NC1CCS(=O)(=O)C1` (stereo not given) the Potency was “inactive”. For `O=C(c1cc(COc2c(F)cccc2F)on1)N1CC[C@@H]2CCCC[C@H]2C1`, the Potency was inconclusive: 0.0501 µM [inhibitor, full curve]. For `COC(=O)c1cc(OC)ccc1-c1ccc(OC)cc1`, the Potency was inconclusive: 35.5 µM [inhibitor, single point].

Source: PubChem BioAssay AID743255 (National Center for Advancing Translational Sciences (NCATS), 2014)
Further: nearly all actives have a fitted effect of over 60% in size.
On the % scale 0 is the no-effect control and ±100 the full control effect; potency means the concentration at half of the fitted maximal effect.
